Paper doi:10.1101/566430
No constants are given. Whether binding was seen depends on the method and setting. In cells and extracts the contact can be indirect. Some binding calls cover weakened binding; strength is not graded here.

Chains of the proteins cited; added tags and fusions are not shown. Lines headed by an entry give the natural chain unless they say otherwise; changes in a name come on top.
UniProt P31749, whole entry: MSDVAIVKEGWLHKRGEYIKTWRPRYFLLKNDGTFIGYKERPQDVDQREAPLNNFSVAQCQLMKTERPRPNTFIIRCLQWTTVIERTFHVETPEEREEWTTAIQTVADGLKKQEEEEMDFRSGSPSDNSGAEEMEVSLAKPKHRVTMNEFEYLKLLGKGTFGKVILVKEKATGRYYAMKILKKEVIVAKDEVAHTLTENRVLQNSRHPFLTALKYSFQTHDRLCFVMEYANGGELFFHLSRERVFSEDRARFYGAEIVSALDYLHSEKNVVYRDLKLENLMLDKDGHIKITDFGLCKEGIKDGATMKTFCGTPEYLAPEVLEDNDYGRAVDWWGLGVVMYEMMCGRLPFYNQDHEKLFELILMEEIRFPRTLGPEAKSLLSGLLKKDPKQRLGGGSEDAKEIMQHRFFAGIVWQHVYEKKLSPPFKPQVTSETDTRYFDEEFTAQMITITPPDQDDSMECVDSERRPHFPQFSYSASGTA
UniProt O15530, whole entry, looked up, stated change not applied: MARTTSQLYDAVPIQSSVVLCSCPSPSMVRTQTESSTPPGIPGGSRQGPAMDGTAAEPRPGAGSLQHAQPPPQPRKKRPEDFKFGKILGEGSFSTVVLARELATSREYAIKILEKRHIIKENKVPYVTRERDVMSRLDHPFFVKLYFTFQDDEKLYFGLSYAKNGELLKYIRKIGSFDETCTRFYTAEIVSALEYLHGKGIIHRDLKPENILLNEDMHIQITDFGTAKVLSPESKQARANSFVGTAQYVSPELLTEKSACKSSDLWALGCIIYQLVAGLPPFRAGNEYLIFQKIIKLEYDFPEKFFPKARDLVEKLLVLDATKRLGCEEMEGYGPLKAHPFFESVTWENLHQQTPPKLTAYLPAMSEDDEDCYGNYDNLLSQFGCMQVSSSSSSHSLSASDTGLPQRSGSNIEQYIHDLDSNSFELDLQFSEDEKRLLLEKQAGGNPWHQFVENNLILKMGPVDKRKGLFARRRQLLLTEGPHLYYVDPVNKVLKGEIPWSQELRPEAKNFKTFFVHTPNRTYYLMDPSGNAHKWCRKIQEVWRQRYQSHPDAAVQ

Target: mCherry-HA-PKB (Akt/PKB) (UniProt P31749)
Experiment: FRET or BRET

| Substance | binding |
| --- | --- |
| PDK1 K465A, full length (eGFP-myc-PDK1 K465A and HA-PDK1-mCherry K465A) (from UniProt O15530 1-556) (enzyme) | binds |
| PDK1 R466A/K467A, full length (eGFP-myc-PDK1 and HA-PDK1-mCherry, both R466A/K467A) (from UniProt O15530 1-556) (enzyme) | binds |
